{"source": "PubChem BioAssay AID1508588, Peter MacCallum Cancer Centre, 2020", "purpose": "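Genome-wide search for knock-downs that heighten vemurafenib action in melanoma cells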 (primary screen)", "cells": "human WM266.4 melanoma cells (BRAF V600 mutant)", "reagent": "siRNA pool against human genes, 40 nM", "duration": "96 h from transfection to read-out", "conditions": "vemurafenib 300 nM (about IC25), added 48 h after transfection, for 48 h; comparison arm got DMSO vehicle only", "measurement": "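Ratios to non-targeting siRNA for cell gain, counted as DAPI nuclei after minus before drug and averaged over two replicates, and for absorbance-read medium lactate per cell; both binned into fold-change classes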", "scale": "cell gain with vemurafenib: higher = more cell gain than with non-targeting siRNA; lactate per cell with vemurafenib: higher = more lactate made per cell", "rule for the call": "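Enhancement is called by pairing each knock-down's vehicle-arm and drug-arm fold-change classes for viability or glycolysis; which class combinations qualify is not given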", "meaning of the calls": "active = enhances vemurafenib effect; inactive = no enhancement seen", "note": "In all, the deposit lists about 18,000 reagents; shown is a part drawn at random. Of all reagents, 790 (4.4%) were called active. 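Calls rest on a combination of fold-change classes in drug and vehicle arms, not all shown here.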"}
{"gene": "OGG1 (8-oxoguanine DNA glycosylase)", "cell gain with vemurafenib": 0.76, "lactate per cell with vemurafenib": 0.64, "Call": "inactive"}
{"gene": "MRPS11 (mitochondrial ribosomal protein S11)", "cell gain with vemurafenib": 0.42, "lactate per cell with vemurafenib": 1.86, "Call": "inactive"}
{"gene": "SMPD3 (sphingomyelin phosphodiesterase 3)", "cell gain with vemurafenib": 0.6, "lactate per cell with vemurafenib": 0.82, "Call": "inactive"}
{"gene": "ELAVL1 (ELAV like RNA binding protein 1)", "cell gain with vemurafenib": 0.45, "lactate per cell with vemurafenib": 1.41, "Call": "inactive"}
{"gene": "SNTB1 (syntrophin beta 1)", "cell gain with vemurafenib": 0.69, "lactate per cell with vemurafenib": 0.69, "Call": "inactive"}
{"gene": "LUC7L2 (LUC7 like 2, pre-mRNA splicing factor)", "cell gain with vemurafenib": 0.4, "lactate per cell with vemurafenib": 0.5, "Call": "inactive"}
{"gene": "CCDC66 (coiled-coil domain containing 66)", "cell gain with vemurafenib": 0.47, "lactate per cell with vemurafenib": 1.23, "Call": "inactive"}
{"gene": "HSP90AA1 (heat shock protein 90 alpha family class A member 1)", "cell gain with vemurafenib": 0.36, "lactate per cell with vemurafenib": 1.17, "Call": "inactive"}
{"gene": "OR9G9 (olfactory receptor family 9 subfamily G member 9)", "cell gain with vemurafenib": 0.95, "lactate per cell with vemurafenib": 0.74, "Call": "inactive"}
{"gene": "CD320 (CD320 molecule)", "cell gain with vemurafenib": 1.46, "lactate per cell with vemurafenib": 0.86, "Call": "inactive"}
{"gene": "LINC03122 (long independently transcribed non-coding RNA 3122)", "cell gain with vemurafenib": 0.16, "lactate per cell with vemurafenib": 1.72, "Call": "inactive"}
{"gene": "FNBP1L (formin binding protein 1 like)", "cell gain with vemurafenib": 0.31, "lactate per cell with vemurafenib": 1.04, "Call": "inactive"}

4 of these entries, set out differently:
gene | cell gain with vemurafenib | lactate per cell with vemurafenib | Call
OGG1 (8-oxoguanine DNA glycosylase) | 0.76 | 0.64 | inactive
MRPS11 (mitochondrial ribosomal protein S11) | 0.42 | 1.86 | inactive
SMPD3 (sphingomyelin phosphodiesterase 3) | 0.6 | 0.82 | inactive
ELAVL1 (ELAV like RNA binding protein 1) | 0.45 | 1.41 | inactive

The listing continues.
{"gene": "SURF6 (surfeit 6)", "cell gain with vemurafenib": 0.56, "lactate per cell with vemurafenib": 1.24, "Call": "inactive"}
{"gene": "KRT222 (keratin 222)", "cell gain with vemurafenib": 1.1, "lactate per cell with vemurafenib": 1.06, "Call": "inactive"}
{"gene": "SLC34A2", "cell gain with vemurafenib": 0.27, "lactate per cell with vemurafenib": 0.84, "Call": "inactive"}
{"gene": "MLC1 (modulator of VRAC current 1)", "cell gain with vemurafenib": 0.4, "lactate per cell with vemurafenib": 0.64, "Call": "inactive"}
{"gene": "FAM9B (family with sequence similarity 9 member B)", "cell gain with vemurafenib": 1.07, "lactate per cell with vemurafenib": 0.3, "Call": "active"}
{"gene": "ADGRG2 (adhesion G protein-coupled receptor G2)", "cell gain with vemurafenib": 0.79, "lactate per cell with vemurafenib": 0.98, "Call": "inactive"}
{"gene": "DEFB130A (defensin beta 130A)", "cell gain with vemurafenib": 0.56, "lactate per cell with vemurafenib": 0.55, "Call": "inactive"}
{"gene": "IKBKB (inhibitor of nuclear factor kappa B kinase subunit beta)", "cell gain with vemurafenib": 0.37, "lactate per cell with vemurafenib": 1.28, "Call": "inactive"}
{"gene": "TK2 (thymidine kinase 2)", "cell gain with vemurafenib": 0.71, "lactate per cell with vemurafenib": 1.31, "Call": "inactive"}
{"gene": "TGM5 (transglutaminase 5)", "cell gain with vemurafenib": 0.6, "lactate per cell with vemurafenib": 1.03, "Call": "inactive"}
{"gene": "MSLN (mesothelin)", "cell gain with vemurafenib": 0.24, "lactate per cell with vemurafenib": 2.23, "Call": "inactive"}
{"gene": "TMPRSS11A (transmembrane serine protease 11A)", "cell gain with vemurafenib": 0.76, "lactate per cell with vemurafenib": 0.77, "Call": "inactive"}
{"gene": "TEX101 (testis expressed 101)", "cell gain with vemurafenib": 0.74, "lactate per cell with vemurafenib": 1.29, "Call": "inactive"}
{"gene": "DRC11 (dynein regulatory complex subunit 11)", "cell gain with vemurafenib": 0.5, "lactate per cell with vemurafenib": 0.5, "Call": "inactive"}
{"gene": "TAOK2 (TAO kinase 2)", "cell gain with vemurafenib": 0.78, "lactate per cell with vemurafenib": 1.01, "Call": "inactive"}
